In patent US20030170203A1 one finds binding data, which are given here for 2 substances.

Sequences of proteins named here, by UniProt entry; tags and fusion partners are left off. Residues count along the entry.
UniProt P25445, residues 191-335: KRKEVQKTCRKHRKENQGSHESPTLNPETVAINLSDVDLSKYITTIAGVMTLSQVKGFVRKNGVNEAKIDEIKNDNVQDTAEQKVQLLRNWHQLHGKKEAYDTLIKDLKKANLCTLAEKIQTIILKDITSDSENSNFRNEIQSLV
UniProt Q13158: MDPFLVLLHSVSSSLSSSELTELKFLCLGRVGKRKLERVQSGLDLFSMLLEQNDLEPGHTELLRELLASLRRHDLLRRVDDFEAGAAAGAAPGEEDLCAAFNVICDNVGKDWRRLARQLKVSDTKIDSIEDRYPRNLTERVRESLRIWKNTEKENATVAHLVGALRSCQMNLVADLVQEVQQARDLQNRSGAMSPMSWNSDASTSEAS
UniProt O95150, residues 72-251: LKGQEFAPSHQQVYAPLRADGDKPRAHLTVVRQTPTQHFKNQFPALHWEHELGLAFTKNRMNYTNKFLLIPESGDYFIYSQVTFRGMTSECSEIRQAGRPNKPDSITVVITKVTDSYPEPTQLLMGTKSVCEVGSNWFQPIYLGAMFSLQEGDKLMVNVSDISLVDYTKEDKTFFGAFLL

No constants are given. Whether binding was seen depends on the method and setting. For some assays here: In cells and extracts the contact can be indirect. Some binding calls cover weakened binding; strength is not graded here.

The target of assay [1] is GST fusion of the cytoplasmic domain of Fas (UniProt P25445). The assay is described as follows: GST pull-down of in vitro translated 35S-labeled protein, SDS-PAGE and autoradiography.
Assay [2] deals with T1, death domain truncated DR3 (DR3_DD, aa 1-345) on cells (human) (UniProt Q93038).
T1 sequence: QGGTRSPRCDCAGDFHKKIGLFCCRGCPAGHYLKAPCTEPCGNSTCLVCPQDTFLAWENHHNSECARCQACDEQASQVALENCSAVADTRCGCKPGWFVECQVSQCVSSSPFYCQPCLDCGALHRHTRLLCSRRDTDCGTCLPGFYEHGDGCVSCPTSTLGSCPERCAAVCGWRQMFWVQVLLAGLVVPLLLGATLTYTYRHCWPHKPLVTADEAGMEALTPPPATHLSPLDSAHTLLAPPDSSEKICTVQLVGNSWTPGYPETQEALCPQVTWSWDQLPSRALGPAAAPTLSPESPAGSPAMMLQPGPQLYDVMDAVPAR
The assay is described as follows: flow cytometry on transiently transfected cells. (In general: A flow cytometer gives signals particle by particle.)

As to FADD (from UniProt Q13158 1-208), in assay [1], the binding result was “binds”.

“FLAG-tagged soluble form of TNF-gamma-beta (aa 72-251) (from UniProt O95150 72-251) (ligand)”: the binding entry in assay [2] is recorded as “binds”.
